Source: PubChem BioAssay AID1439 (NMMLSC, 2008)
In all, about 220,000 compounds went through this assay and about 770 (0.35%) were called active. This list was built around the results that the source calls inconclusive (neither active nor inactive); the mix of calls is not that of the screen. Rule as the data show it: active = binding response below about 49% or above about 150%; inconclusive = no clear call, values can overlap the other calls; inactive = in between.

Sequences of proteins named here, by UniProt entry; tags and fusion partners are left off.
UniProt P09471, whole entry, looked up: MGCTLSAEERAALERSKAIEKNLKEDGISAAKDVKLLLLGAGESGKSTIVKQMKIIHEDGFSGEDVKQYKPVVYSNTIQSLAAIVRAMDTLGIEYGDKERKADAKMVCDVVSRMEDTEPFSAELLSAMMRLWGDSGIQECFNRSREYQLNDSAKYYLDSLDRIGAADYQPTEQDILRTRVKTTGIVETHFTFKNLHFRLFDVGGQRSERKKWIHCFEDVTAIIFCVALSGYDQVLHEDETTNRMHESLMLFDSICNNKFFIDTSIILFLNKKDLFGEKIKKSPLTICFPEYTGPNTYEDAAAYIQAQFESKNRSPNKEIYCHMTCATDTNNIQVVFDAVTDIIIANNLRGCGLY

Target: Guanine nucleotide-binding protein G(o) subunit alpha (Homo sapiens) (UniProt P09471)
Experiment: RGS7-Galphao binding modulators, primary screen, biochemical, multiplexed bead flow cytometry (AID 1439);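 also: fluorescent Galphao held in activated GDP-AlF4 state binding bead-coupled RGS7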
Conditions: at 10 µM, actives lie on both sides

Row | SMILES | binding response (% of control)
1 | C/C=C\C(=O)Nc1cccc(C2=NOC3(C2)C[C@@H](C(N)=O)N(C(=O)c2ccccc2)C3)c1 (some centres not stated) | inconclusive: 104%
2 | CCOc1ccc(C(=O)Nn2cnnc2)cc1OCC | inconclusive: 74.8%
3 | COc1ccc(/C=N/N2C(=N)SCC2=O)cc1 | inconclusive: 93.2%
4 | Cc1cccc(S(=O)(=O)Nc2nc3ccccc3nc2NCC2CCCO2)c1 (configuration not stated) | inconclusive: -115%
5 | CCOC(=O)c1cnc2ccccc2c1Nc1cc(C(=O)O)ccc1C | inactive: 104%
6 | COc1ccc(OCCC(=O)OCC(=O)NCc2ccccc2)cc1 | inactive: 96%
7 | O=S(=O)(c1ccc(-c2ccon2)s1)N1CCOCC1 | inconclusive: 45.5%
8 | Cc1cc(-c2onc(C)c2C(=O)O)no1 | inconclusive: 119%
9 | Cc1cccc(Nc2cc(C)c3c(O)cccc3n2)c1C | inactive: 97.7%
10 | O=C(O)CCC1OC(=O)C(O)=C1c1ccccc1 (configuration not stated) | inconclusive: 72.3%
11 | Cc1cc(C)c2c(=O)n(CC(=O)N3CCC(N4CCCCC4)CC3)sc2n1 | inactive: 117%
12 | CC1=CC(C)(C)n2c(O)c(N=NC(N)=S)c3c(C)c(C)cc1c32 | inconclusive: 70.7%
13 | CCCCCC1=CCC/C1=N\NC(=O)c1ccc2c(c1)OCO2 | inconclusive: 96%
14 | CN(C)C(=S)SCC(=O)NC(=O)NC(C)(C)C | inconclusive: 107%
15 | COc1ccc(C(CC(=O)O)NS(=O)(=O)c2ccc(C)cc2)cc1OC (configuration not stated) | active: 11.8%
16 | CC(=O)Oc1ccc(N2C(=O)C3C4C=CC(CC4)C3C2=O)cc1[N+](=O)[O-] (configuration not stated) | inconclusive: 101%
17 | Cc1c(C(=O)Nc2cccc(Cl)c2)c2ccccn2c1CCc1ccncc1 | inactive: 105%
18 | O=C(O)C#Cc1cccc2ccccc12 | inconclusive: 75%
19 | COc1ccc(-n2c(=O)c3ccccc3n(CC(=O)OCc3ccccc3)c2=O)cc1OC | inactive: 79.2%
20 | O=C(Nc1nc2c(Br)cc(Br)cc2c(=O)s1)c1ccco1 | inconclusive: 116%
21 | CCC(C(=O)OCC(=O)c1ccc2c(c1)NC(=O)CO2)c1ccccc1 (configuration not stated) | inconclusive: 91.2%
22 | COc1cnc(-c2ccccc2)nc1Oc1ccc(Cl)cc1C | inactive: 103%
23 | Cc1nnsc1C(=O)NNc1ccc(Cl)cc1 | inconclusive: 172%
24 | COc1cc2c(cc1OC)C1(CCCCC1)CN(C)C2 | inconclusive: 97.7%
25 | CCOC(=O)c1sc(=S)n(C)c1NC(=O)c1cccc(Br)c1 | inconclusive: 223%
26 | COc1ccccc1NC(=O)NCCc1c[nH]c2ccccc12 | inconclusive: 87.8%
27 | CCCCC(C(=O)O)C(C)CC(=O)Nc1nncs1 (configuration not stated) | inconclusive: 125%

By substructure, the compounds so far containing bromine (two)
Row | SMILES | binding response (% of control)
20 | O=C(Nc1nc2c(Br)cc(Br)cc2c(=O)s1)c1ccco1 | inconclusive: 116%
25 | CCOC(=O)c1sc(=S)n(C)c1NC(=O)c1cccc(Br)c1 | inconclusive: 223%
